Data reported in article PMC12136456.
Results are given in words; binding and its absence hold for the method and conditions named. In cells and extracts the contact can be indirect. These calls come from enrichment with a bait or labelling near it, and not all partners need be listed. Values belong to the binder of their own block, whether it stands above or below them.

Chains of the proteins cited; added tags and fusions are not shown.
UniProt P26599: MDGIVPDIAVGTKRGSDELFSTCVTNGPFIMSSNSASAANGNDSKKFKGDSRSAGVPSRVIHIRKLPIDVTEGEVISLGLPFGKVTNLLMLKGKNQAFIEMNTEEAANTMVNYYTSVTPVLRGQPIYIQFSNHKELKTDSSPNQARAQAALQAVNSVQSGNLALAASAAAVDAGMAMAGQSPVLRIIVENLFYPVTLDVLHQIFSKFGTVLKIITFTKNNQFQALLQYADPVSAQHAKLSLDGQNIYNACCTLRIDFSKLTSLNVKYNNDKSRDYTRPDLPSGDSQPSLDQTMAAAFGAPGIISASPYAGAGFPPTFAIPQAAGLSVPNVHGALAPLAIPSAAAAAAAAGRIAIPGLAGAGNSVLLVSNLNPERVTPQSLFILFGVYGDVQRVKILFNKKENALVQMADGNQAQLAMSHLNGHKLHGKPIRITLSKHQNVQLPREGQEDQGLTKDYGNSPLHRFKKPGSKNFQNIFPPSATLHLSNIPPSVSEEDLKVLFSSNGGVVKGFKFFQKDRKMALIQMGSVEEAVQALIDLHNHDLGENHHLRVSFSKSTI

Columns and labels:
[1] = biological target: Polypyrimidine Tract Binding Protein 1, His-tagged (UniProt P26599); assay: affinity purification with mass spectrometry; 48 ug His-tagged PTBP in a 200 ul splicing reaction (2.2 mM MgCl2, 0.4 mM ATP, 20 mM creatine phosphate) with WERI retinoblastoma nuclear extract, 30 C 90 min; HisPur Ni-NTA magnetic resin overnight at 4 C; washes with 150 mM NaCl, 30 mM imidazole; eluted with 300 mM imidazole; proteins of the Buffer DG and WERI only controls removed from the lists; the extract includes RNA transcripts, so a protein may be bound directly or through RNA; only the target purified
[2] = biological target: Polypyrimidine Tract Binding Protein 1, His-tagged, P26599; assay: affinity purification with mass spectrometry; 48 ug His-tagged PTBP in a 200 ul splicing reaction (2.2 mM MgCl2, 0.4 mM ATP, 20 mM creatine phosphate) with WERI retinoblastoma nuclear extract, 30 C 90 min; HisPur Ni-NTA magnetic resin overnight at 4 C; washes with 150 mM NaCl, 30 mM imidazole; eluted with 300 mM imidazole; proteins of the Buffer DG and WERI only controls removed from the lists; the extract includes …; settings: remark: other sources report otherwise

binding [1]: binds
B1: transcriptional regulatory factor TRIM29 (protein, UniProt Q14134 1-588)
chain: MEAADASRSNGSSPEARDARSPSGPSGSLENGTKADGKDAKTTNGHGGEAAEGKSLGSALKPGEGRSALFAGNEWRRPIIQFVESGDDKNSNYFSMDSMEGKRSPYAGLQLGAAKKPPVTFAEKGELRKSIFSESRKPTVSIMEPGETRRNSYPRADTGLFSRSKSGSEEVLCDSCIGNKQKAVKSCLVCQASFCELHLKPHLEGAAFRDHQLLEPIRDFEARKCPVHGKTMELFCQTDQTCICYLCMFQEHKNHSTVTVEEAKAEKETELSLQKEQLQLKIIEIEDEAEKWQKEKDRIKSFTTNEKAILEQNFRDLVRDLEKQKEEVRAALEQREQDAVDQVKVIMDALDERAKVLHEDKQTREQLHSISDSVLFLQEFGALMSNYSLPPPLPTYHVLLEGEGLGQSLGNFKDDLLNVCMRHVEKMCKADLSRNFIERNHMENGGDHRYVNNYTNSFGGEWSAPDTMKRYSMYLTPKGGVRTSYQPSSPGRFTKETTQKNFNNLYGTKGNYTSRVWEYSSSIQNSDNDLPVVQGSSSFSLKGYPSLMRSQSPKAQPQTWKSGKQTMLSHYRPFYVNKGNGIGSNEAP

binding [2]: binds
B2: splicing factor hnRNPLL, Q8WVV9 1-542 (protein)
chain: MSSSSSSPRETYEEDREYESQAKRLKTEEGEIDYSAEEGENRREATPRGGGDGGGGGRSFSQPEAGGSHHKVSVSPVVHVRGLCESVVEADLVEALEKFGTICYVMMMPFKRQALVEFENIDSAKECVTFAADEPVYIAGQQAFFNYSTSKRITRPGNTDDPSGGNKVLLLSIQNPLYPITVDVLYTVCNPVGKVQRIVIFKRNGIQAMVEFESVLCAQKAKAALNGADIYAGCCTLKIEYARPTRLNVIRNDNDSWDYTKPYLGRRDRGKGRQRQAILGEHPSSFRHDGYGSHGPLLPLPSRYRMGSRDTPELVAYPLPQASSSYMHGGNPSGSVVMVSGLHQLKMNCSRVFNLFCLYGNIEKVKFMKTIPGTALVEMGDEYAVERAVTHLNNVKLFGKRLNVCVSKQHSVVPSQIFELEDGTSSYKDFAMSKNNRFTSAGQASKNIIQPPSCVLHYYNVPLCVTEETFTKLCNDHEVLTFIKYKVFDAKPSAKTLSGLLEWECKTDAVEALTALNHYQIRVPNGSNPYTLKLCFSTSSHL
